Measured data: PubChem BioAssay AID1224828 (NIAID, 2016)
Screen: 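Find genes required for NF-kappaB p65 moving into the nucleus after LPS in mouse macrophages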 (primary screen). Cell system: mouse RAW264.7 G9 macrophage reporter cells (GFP-p65, Tnf promoter-mCherry). Reagents: siRNA pool against mouse genes, 100 nM. Time to read-out: 2 days siRNA transfection, then 40 min LPS before fixation. Challenge: LPS (Salmonella minnesota R595) at 10 ng/ml. Detection: 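Microscopy ratio of nuclear to perinuclear-ring GFP-p65 signal, scaled to the plate median; gene score is the average of two replicate robust z-scores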. Reading the numbers: p65 translocation robust z-score: higher = more nuclear NF-kappaB p65 after LPS than the plate median; nuclear/cytoplasmic p65 ratio: higher = more nuclear NF-kappaB p65. Active means: 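Called active when z exceeds 3.3 or falls under -1.56 (median of Tlr4 controls), giving activity score of at least 50; no calls for control wells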. Meaning of the calls: active = hit (p65 shift raised or lowered); inactive = no clear change.
Shown is one part, drawn at random, of about 17,000 reagents. 762 of all reagents (4.5%) were called active. 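Active calls include both raised and lowered p65 entry, mostly lowered; wells with fewer than 50 cells lack a z-score.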 Raw values are not corrected between plates. No sequences are given here.

The first 4 entries as a preview:
no.	gene symbol	p65 translocation robust z-score	nuclear/cytoplasmic p65 ratio, rep 1	nuclear/cytoplasmic p65 ratio, rep 2	low cell count flag	call
1	Thap3		1.35	1.14	fewer than 50 cells per well; well left out of scoring	inactive
2	Capn2	0.06	1.61	1.64	enough cells to score	inactive
3	Nbn	-0.69	1.29	1.26	enough cells to score	inactive
4	Tas2r136	-0.88	1.25	1.11	enough cells to score	inactive

Main list, from the first entry:
no.	gene symbol	p65 translocation robust z-score	nuclear/cytoplasmic p65 ratio, rep 1	nuclear/cytoplasmic p65 ratio, rep 2	low cell count flag	call
1	Thap3		1.35	1.14	fewer than 50 cells per well; well left out of scoring	inactive
2	Capn2	0.06	1.61	1.64	enough cells to score	inactive
3	Nbn	-0.69	1.29	1.26	enough cells to score	inactive
4	Tas2r136	-0.88	1.25	1.11	enough cells to score	inactive
5	Zfpm2	0.56	1.62	1.55	enough cells to score	inactive
6	Henmt1	0.36	1.38	1.25	enough cells to score	inactive
7	Wnt2	-0.47	1.52	1.47	enough cells to score	inactive
8	Abhd17a	-1.27	1.26	1.58	enough cells to score	inactive
9	AY036118	-0.12	1.45	1.63	enough cells to score	inactive
10	Psd2		1.49	1.21	fewer than 50 cells per well; well left out of scoring	inactive
11	Rce1	-0.93	1.38	1.39	enough cells to score	inactive
12	Gm20558		1.3	1.26	fewer than 50 cells per well; well left out of scoring	inactive
13	Defb4	0.23	1.56	1.63	enough cells to score	inactive
14	Tfap2c	-0.01	1.54	1.5	enough cells to score	inactive
15	Eif3m	0.58	1.61	1.6	enough cells to score	inactive
16	Grm8	-0.81	1.38	1.48	enough cells to score	inactive
17	Snrpd3		1.17	1.48	fewer than 50 cells per well; well left out of scoring	inactive
18	Rgmb	0.67	1.57	1.24	enough cells to score	inactive
19	Hspe1	-1.18	1.26	1.25	enough cells to score	inactive
20	Trem3	0.55	1.43	1.26	enough cells to score	inactive
21	Acot13	-0.49	1.35	1.1	enough cells to score	inactive
22	C730014E05Rik	1.91	1.78	2.2	enough cells to score	inactive
23	Tpd52l1	-0.8	1.37	1.44	enough cells to score	inactive
24	Glrx	-0.26	1.48	1.26	enough cells to score	inactive
25	Tbx19	0.23	1.58	1.52	enough cells to score	inactive
26	Gphb5		1.44	0	fewer than 50 cells per well; well left out of scoring	inactive
27	Lrrc23	-2.35	1.35	1.16	enough cells to score	active
28	Pcgf6	0.67	1.52	1.29	enough cells to score	inactive
29	Bend6	-2.11	1.22	1.28	enough cells to score	active
30	Apol10a	0.18	1.67	1.61	enough cells to score	inactive
31	Gsta1	-1.09	1.59	1.28	enough cells to score	inactive
32	Amz2	2.19	1.25	1.5	enough cells to score	inactive
33	Gpr37l1	-0.6	1.41	1.5	enough cells to score	inactive
34	Gmeb2	0.43	1.81	1.62	enough cells to score	inactive
35	Cep83		1.22	1.21	fewer than 50 cells per well; well left out of scoring	inactive
36	Tas2r118	1.13	1.67	2.29	enough cells to score	inactive
37	Zfp36l2	-0.24	1.35	1.22	enough cells to score	inactive
38	Nme7	0.19	1.62	1.47	enough cells to score	inactive
39	Zfp207	-0.14	1.39	1.23	enough cells to score	inactive
40	Teddm2	-0.64	1.38	1.61	enough cells to score	inactive
